Values quoted from earlier work in patent publication US20150361400A1, “COMPOSITIONS AND METHODS FOR MAINTAINING AND IMPROVING PANCREATIC ISLET CELL FUNCTION AND STABILITY” (WAKE FOREST UNIVERSITY HEALTH SCIENCES, priority 2013, published 2015).
At least one compound was matched to its structure with a doubt left.

Experiments:
Beta-cell apoptosis = conditions: mice with estradiol production suppressed, STZ; cited from earlier work
[1] = tested on: Zucker diabetic fatty rat (ZDF) model; conditions: cited from earlier work
isolated mouse islets = conditions: cited from earlier work
MIN6 cells = conditions: cited from earlier work
human islets = conditions: cited from earlier work

## C[C@]12CC[C@@H]3c4ccc(O)cc4CC[C@H]3[C@@H]1CC[C@@H]2O [estradiol]
Beta-cell apoptosis
  Beta-cell apoptosis: reversed
[1]
  beta-cell mass: increased
  islet insulin content: increased
Isolated mouse islets
  glucose-stimulated insulin secretion: increased
  insulin content: increased
MIN6 cells
  hydrogen peroxide-induced apoptosis: protected
Human islets
  hydrogen peroxide-induced apoptosis: protected
